# Construct, isoform or probe ends are uncertain for at least one entry. At least one verdict was read from the data and is not stated in words by the source. Where a protein sequence is shown, tags need not be part of it.
# Target: T1, HBb (Bd0055) (Bdellovibrio bacteriovorus HD100) (UniProt Q6MRM1)
# T1 sequence (looked up): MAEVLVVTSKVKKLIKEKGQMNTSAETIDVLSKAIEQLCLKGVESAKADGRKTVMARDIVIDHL
# Assay: crystal structure
# Conditions: recombinant protein, residues 1-64, protein details: N-terminal His6 (vector pETHis1a)
sequence,measurement,setting,value
TTAAAGCCCGTTAAAGCCCG (double strand) [20 bp-GC50],binding result,HBb-DNA_1,binds
same,binding result,"HBb-DNA_2, 9 nt strand in asymmetric unit, contacts T8 S9 K10",binds

# Source: article PMC11317129, “Bacterial histone HBb from Bdellovibrio bacteriovorus compacts DNA by bending” (Nucleic Acids Research, 2023)
